Results as given in the supplement of paper PMC12067093, “Discovery and optimisation of a covalent ligand for TRIM25 and its application to targeted protein ubiquitination” (Chemical Science, 2025).
The list shows a part of the results.

Chains of the proteins cited; added tags and fusions are not shown. Lines headed by an entry give the natural chain unless they say otherwise; changes in a name come on top.
UniProt Q9H2P9: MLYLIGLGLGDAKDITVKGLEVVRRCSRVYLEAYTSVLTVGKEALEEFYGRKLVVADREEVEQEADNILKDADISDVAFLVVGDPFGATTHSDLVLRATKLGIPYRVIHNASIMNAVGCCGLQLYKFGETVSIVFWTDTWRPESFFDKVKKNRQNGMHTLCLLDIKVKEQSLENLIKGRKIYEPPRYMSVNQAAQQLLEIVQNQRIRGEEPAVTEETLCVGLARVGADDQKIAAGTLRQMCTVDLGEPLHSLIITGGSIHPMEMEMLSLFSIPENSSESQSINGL
UniProt Q13011: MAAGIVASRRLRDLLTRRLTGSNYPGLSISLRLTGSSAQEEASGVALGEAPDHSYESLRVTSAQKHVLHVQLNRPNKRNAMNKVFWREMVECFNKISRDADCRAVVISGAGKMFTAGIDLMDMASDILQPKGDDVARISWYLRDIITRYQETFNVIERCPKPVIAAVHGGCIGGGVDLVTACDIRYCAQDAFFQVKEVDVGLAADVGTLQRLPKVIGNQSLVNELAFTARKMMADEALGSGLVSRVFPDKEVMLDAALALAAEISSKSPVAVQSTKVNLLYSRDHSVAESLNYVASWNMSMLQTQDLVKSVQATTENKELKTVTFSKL
UniProt Q92608: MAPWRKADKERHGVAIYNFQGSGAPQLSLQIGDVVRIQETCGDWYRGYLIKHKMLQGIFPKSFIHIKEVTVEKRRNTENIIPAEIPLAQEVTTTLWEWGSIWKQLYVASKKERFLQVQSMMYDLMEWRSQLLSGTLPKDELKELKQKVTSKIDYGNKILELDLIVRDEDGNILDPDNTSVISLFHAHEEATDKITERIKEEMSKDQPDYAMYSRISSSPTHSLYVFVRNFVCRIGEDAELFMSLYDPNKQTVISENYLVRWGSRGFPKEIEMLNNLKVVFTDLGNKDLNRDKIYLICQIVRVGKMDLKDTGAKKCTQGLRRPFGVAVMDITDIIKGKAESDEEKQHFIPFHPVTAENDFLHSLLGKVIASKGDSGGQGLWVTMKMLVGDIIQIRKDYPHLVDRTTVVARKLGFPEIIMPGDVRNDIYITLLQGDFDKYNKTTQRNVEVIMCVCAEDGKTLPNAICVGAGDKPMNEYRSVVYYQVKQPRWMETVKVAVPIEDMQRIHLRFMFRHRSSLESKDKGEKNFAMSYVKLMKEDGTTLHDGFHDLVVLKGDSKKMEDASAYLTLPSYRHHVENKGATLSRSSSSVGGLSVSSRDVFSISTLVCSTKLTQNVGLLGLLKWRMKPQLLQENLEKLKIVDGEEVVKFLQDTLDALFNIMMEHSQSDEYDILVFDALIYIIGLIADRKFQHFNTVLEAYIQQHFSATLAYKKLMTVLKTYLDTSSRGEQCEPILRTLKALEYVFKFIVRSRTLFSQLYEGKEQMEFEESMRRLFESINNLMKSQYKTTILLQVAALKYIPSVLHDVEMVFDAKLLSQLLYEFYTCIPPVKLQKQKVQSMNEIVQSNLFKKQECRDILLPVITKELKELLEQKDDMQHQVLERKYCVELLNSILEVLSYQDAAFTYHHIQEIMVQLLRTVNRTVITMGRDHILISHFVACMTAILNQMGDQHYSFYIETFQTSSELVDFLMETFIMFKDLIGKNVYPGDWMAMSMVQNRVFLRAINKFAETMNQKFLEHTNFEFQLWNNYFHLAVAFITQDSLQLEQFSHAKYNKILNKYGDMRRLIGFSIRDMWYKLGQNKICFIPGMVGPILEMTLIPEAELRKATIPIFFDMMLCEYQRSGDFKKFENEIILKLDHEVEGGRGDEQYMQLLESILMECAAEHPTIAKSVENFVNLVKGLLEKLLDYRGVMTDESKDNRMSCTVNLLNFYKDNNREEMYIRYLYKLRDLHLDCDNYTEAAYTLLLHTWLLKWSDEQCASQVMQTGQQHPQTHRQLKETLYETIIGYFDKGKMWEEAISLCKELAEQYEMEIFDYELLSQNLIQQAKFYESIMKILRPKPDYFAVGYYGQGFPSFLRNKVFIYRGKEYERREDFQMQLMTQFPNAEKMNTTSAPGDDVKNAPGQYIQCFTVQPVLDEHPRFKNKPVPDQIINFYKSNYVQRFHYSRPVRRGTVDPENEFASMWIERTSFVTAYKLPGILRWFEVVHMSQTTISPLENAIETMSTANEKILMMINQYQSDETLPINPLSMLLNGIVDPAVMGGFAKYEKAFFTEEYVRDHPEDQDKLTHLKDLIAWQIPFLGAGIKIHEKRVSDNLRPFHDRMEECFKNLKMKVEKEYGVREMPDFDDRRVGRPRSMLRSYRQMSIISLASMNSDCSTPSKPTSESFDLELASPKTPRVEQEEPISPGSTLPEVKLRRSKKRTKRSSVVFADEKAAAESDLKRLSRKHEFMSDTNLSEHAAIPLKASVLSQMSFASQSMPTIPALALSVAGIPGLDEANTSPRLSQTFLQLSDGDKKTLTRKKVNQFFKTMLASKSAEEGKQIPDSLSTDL
UniProt Q12882: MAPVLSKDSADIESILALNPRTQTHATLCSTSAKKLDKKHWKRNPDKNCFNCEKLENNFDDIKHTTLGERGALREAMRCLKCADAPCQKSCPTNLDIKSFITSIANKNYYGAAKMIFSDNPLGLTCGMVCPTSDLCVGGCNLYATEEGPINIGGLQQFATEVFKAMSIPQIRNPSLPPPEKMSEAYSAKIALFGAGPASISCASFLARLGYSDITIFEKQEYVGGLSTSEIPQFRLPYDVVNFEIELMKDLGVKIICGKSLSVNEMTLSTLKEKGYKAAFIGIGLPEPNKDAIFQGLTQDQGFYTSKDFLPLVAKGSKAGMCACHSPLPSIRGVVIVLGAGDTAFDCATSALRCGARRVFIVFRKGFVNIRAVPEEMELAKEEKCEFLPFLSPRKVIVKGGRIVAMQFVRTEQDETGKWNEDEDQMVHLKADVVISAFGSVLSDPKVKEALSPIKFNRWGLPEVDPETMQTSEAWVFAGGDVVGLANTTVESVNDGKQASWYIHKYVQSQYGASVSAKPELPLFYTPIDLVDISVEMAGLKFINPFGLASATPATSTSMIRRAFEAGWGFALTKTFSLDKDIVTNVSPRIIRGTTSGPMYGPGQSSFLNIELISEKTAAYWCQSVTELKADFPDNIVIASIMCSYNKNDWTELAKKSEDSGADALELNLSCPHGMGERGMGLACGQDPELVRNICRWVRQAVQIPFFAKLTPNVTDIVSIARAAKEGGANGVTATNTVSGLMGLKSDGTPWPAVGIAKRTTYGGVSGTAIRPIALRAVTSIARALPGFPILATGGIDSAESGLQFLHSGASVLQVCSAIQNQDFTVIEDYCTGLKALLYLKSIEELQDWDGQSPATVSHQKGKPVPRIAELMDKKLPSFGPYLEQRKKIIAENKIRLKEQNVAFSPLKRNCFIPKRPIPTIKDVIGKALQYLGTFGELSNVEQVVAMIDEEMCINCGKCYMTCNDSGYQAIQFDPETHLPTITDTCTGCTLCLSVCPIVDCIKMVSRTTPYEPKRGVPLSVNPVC
UniProt Q9H7D0, whole entry, looked up: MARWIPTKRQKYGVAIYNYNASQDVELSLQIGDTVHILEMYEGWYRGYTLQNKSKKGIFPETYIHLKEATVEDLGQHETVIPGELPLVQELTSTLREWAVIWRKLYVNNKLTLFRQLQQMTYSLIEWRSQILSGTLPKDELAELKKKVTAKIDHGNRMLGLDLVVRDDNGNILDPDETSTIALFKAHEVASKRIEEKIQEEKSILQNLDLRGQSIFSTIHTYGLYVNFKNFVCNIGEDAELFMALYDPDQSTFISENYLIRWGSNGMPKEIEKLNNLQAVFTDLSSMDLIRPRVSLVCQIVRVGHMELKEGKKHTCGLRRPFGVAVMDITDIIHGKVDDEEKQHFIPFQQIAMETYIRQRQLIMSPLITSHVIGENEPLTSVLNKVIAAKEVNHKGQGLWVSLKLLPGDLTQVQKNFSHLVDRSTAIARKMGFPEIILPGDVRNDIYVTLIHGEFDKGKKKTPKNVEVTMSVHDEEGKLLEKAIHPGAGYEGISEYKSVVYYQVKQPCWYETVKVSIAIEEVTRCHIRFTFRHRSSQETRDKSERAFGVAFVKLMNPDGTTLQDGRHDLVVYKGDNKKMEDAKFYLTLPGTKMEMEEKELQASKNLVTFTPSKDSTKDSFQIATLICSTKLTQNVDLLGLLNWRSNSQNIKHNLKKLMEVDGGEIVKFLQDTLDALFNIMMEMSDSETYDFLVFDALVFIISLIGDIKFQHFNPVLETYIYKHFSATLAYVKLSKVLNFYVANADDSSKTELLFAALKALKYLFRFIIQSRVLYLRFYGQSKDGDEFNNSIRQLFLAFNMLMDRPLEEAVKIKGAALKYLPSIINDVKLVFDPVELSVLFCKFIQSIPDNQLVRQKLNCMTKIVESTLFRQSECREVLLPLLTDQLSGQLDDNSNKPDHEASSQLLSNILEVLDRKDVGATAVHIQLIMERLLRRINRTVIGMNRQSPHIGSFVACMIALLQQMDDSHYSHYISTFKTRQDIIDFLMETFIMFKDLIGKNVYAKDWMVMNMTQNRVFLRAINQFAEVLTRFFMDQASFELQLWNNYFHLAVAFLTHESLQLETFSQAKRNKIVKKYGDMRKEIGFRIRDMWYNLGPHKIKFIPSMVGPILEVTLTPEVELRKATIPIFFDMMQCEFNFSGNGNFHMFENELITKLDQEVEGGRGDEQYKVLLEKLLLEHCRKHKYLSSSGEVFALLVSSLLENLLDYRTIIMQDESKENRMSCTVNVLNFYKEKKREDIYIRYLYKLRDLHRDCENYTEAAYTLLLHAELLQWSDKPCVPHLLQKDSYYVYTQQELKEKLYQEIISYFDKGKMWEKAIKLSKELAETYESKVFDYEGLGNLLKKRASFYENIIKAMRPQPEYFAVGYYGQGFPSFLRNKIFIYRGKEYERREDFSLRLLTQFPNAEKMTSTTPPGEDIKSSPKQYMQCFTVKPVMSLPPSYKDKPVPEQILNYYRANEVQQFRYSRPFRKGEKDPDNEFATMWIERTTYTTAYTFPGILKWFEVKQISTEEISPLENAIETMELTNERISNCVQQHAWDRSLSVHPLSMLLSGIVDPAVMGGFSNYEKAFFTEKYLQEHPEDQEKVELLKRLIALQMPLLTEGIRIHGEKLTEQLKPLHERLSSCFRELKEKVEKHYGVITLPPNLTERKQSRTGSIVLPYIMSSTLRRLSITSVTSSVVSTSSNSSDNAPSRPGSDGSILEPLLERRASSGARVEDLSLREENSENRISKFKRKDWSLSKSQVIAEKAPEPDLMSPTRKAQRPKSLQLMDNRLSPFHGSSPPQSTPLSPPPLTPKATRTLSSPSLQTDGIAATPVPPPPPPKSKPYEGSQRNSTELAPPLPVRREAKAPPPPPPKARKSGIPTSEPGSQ
UniProt Q92785, whole entry, looked up: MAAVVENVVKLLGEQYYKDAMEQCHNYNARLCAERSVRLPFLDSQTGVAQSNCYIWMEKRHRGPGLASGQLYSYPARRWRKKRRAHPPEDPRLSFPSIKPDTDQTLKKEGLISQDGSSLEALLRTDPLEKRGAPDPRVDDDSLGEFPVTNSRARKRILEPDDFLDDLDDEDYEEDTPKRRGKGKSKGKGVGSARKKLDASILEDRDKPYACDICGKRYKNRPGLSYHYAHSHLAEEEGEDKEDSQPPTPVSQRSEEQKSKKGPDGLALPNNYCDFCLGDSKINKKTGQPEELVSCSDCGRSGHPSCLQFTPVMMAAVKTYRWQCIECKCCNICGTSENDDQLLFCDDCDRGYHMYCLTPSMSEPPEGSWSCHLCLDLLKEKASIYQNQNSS
UniProt P51808: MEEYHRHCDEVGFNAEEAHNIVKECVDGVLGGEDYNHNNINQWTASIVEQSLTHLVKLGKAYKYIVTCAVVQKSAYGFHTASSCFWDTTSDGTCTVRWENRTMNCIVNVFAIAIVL
UniProt O43237, whole entry, looked up: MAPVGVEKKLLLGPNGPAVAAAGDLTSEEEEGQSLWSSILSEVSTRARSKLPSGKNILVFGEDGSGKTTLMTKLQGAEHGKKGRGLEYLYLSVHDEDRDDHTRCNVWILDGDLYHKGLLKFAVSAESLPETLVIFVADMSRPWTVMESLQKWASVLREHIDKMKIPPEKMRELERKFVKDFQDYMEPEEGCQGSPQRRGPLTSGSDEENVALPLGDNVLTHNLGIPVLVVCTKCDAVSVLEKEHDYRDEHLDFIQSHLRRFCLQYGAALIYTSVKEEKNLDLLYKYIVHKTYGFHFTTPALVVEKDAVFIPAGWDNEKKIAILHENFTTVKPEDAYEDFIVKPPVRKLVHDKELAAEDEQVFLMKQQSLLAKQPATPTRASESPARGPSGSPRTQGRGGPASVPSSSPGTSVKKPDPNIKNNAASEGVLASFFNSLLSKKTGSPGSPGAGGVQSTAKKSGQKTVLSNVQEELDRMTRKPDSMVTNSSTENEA
UniProt Q96CJ1: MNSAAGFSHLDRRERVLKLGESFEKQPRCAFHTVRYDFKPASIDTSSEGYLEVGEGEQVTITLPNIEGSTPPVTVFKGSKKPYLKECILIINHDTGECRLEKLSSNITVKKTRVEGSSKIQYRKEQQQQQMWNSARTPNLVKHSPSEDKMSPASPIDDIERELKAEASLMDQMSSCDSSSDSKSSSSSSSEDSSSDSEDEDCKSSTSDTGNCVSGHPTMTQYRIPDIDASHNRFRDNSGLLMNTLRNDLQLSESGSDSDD

Compound: Cc1cc(ccc1-c1ccccc1)C(=O)N1CCCN(CC1)C(=O)CCl [compound 10]
Test: probe-labelled cysteine peptide fold change vs DMSO (competition) (log2 fold change); higher = less target engagement (more negative = stronger competition)
Conditions: THP-1, incubation time: 4 h
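Note: competitive profiling in live THP-1 cells: cysteine peptides tagged with an iodoacetamide desthiobiotin (IA-DTB) probe, intensity after compound treatment relative to DMSO-treated cells.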

Target	probe-labelled cysteine peptide fold change (10 µM)	probe-labelled cysteine peptide fold change (50 µM)
DPH5_Q9H2P9_161_QNGMHTLCLLDIK (UniProt Q9H2P9)	0.0814	-0.172
ECH1_Q13011_159+171+182_CPKPVIAAVHGGCIGGGVDLVTACDIR (UniProt Q13011)	0.25	-0.263
DPCD_Q9BVM2_164_HQLPLDDALLSFAHANCTLIISYQK (UniProt Q9BVM2)	0.107	0.206
DOCK2_Q92608_607_DVFSISTLVCSTK (UniProt Q92608)	-0.0689	0.0595
DPYD_Q12882_82_CADAPCQK (UniProt Q12882)	-0.14	-0.463
DPYSL2_Q16555_248_AITIANQTNCPLYITK (UniProt Q16555)	0.0767	0.199
EAF1_Q96JC9_15_MNGTANPLLDREEHCLR (UniProt Q96JC9)	0.231	0.323
DTWD2_Q8NBA8_220_CLSTLECAAVALSILEK (UniProt Q8NBA8)	0.149	-0.834
DOCK5_Q9H7D0_1532_ISNCVQQHAWDR (UniProt Q9H7D0)	-0.0823	-0.0364
DRG2_P55039_198_KGGGISFNSTVTLTQCSEK (UniProt P55039)	0.255	0.104
E4F1_Q66K89_63_CQAEFTALEDFVQHK (UniProt Q66K89)	0.215	0.174
DPYSL2_Q16555_133_SCCDYSLHVDISEWHK (UniProt Q16555)	0.0779	-0.285
DPF2_Q92785_24_DAMEQCHNYNAR (UniProt Q92785)	0.000209	-0.0844
DYNC1H1_Q14204_4510_NIHVCLGGLFVPEAYITATR (UniProt Q14204)	0.259	0.0837
DOCK8_Q8NF50_186_HLNVLCDVSGK (UniProt Q8NF50)	-0.224	-0.222
DOHH_Q9BU89_242_HECAEALGAIAR (UniProt Q9BU89)	0.14	-0.058
DSN1_Q9H410_191_CFEDSNGK (UniProt Q9H410)	0.00077	0.213
DOCK11_Q5JSL3_1204_DEFPCGFTSPANR (UniProt Q5JSL3)	-0.081	-0.327
DSCC1_Q9BVC3_111_KEDSHCNIIHTEIFGFSNNYWELR (UniProt Q9BVC3)	-0.0834	0.00737

Target	probe-labelled cysteine peptide fold change (10 µM)	probe-labelled cysteine peptide fold change (50 µM)
DOT1L_Q8TEK3_1075_GDCVPSHGQDSR (UniProt Q8TEK3)	-0.037	-0.209
ECH1_Q13011_182_PVIAAVHGGCIGGGVDLVTACDIR (UniProt Q13011)	0.0511	0.132
DPYSL2_Q16555_132_SCCDYSLHVDISEWHK (UniProt Q16555)	0.249	-0.196
DYNLT3_P51808_8_HCDEVGFNAEEAHNIVK (UniProt P51808)	-0.14	-0.282
DPP3_Q9NY33_654_ALYEGYATVTDAPPECFLTLR (UniProt Q9NY33)	0.22	0.451
DOCK5_Q9H7D0_859_LNCMTK (UniProt Q9H7D0)	0.0398	0.000881
DYNC1H1_Q14204_2639_TFDHYCEYR (UniProt Q14204)	0.212	0.245
DYNC1H1_Q14204_2594_VAAPDVVVPTLDTVRHEALLYTWLAEHKPLVLCGPPGSGK (UniProt Q14204)	-0.181	-0.3
ECH1_Q13011_187_YCAQDAFFQVK (UniProt Q13011)	0.086	0.117
DYNC1LI2_O43237_234_CDAVSVLEK (UniProt O43237)	0.381	-0.107
DYNC1H1_Q14204_2594_PLVLCGPPGSGK (UniProt Q14204)	0.0638	-0.00442
DUS3L_Q96G46_315_LYLAPLTTCGNLPFR (UniProt Q96G46)	-0.259	-0.0436
DOK1_Q99704_224_RCPSGPGTFTFQTAQGNDIFQAVETAIHR (UniProt Q99704)	-0.178	-0.282
EAF2_Q96CJ1_98_ECILIINHDTGECR (UniProt Q96CJ1)	0.153	0.263
DTX3L_Q8TDB6_309_QECVSLADSK (UniProt Q8TDB6)	0.0786	0.101
DPH5_Q9H2P9_219_IRGEEPAVTEETLCVGLAR (UniProt Q9H2P9)	-0.0203	-0.00995
DOCK2_Q92608_1408_NAPGQYIQCFTVQPVLDEHPR (UniProt Q92608)	0.113	-0.174
DUT_P33316-2_3_PCSEETPAISPSKR (UniProt P33316)	-0.164	-0.219
DYNC1H1_Q14204_4570_LQGATCNNNK (UniProt Q14204)	-0.0564	-0.139
